Experimental data: publication PMC11956013, “Structure–Activity Relationships and Evaluation of 2-(Heteroaryl-cycloalkyl)-1H-indoles as Tauopathy Positron Emission Tomography Radiotracers” (Journal of Medicinal Chemistry, 2025)

By UniProt entry, the sequences of proteins in these tests, tags left out. Residues count along the entry.
UniProt P14867, 28-456: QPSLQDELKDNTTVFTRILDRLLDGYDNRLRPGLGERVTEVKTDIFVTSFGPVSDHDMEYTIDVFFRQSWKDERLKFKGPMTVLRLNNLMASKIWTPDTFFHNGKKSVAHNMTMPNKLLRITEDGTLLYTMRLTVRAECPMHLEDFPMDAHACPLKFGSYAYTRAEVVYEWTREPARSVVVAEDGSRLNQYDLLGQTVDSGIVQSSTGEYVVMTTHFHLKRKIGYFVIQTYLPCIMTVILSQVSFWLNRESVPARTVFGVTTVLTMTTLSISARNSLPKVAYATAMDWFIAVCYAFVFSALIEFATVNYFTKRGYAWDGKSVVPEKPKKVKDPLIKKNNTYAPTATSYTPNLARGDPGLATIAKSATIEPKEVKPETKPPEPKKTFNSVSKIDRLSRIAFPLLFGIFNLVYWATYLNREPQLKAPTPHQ
UniProt P18507, 40-475: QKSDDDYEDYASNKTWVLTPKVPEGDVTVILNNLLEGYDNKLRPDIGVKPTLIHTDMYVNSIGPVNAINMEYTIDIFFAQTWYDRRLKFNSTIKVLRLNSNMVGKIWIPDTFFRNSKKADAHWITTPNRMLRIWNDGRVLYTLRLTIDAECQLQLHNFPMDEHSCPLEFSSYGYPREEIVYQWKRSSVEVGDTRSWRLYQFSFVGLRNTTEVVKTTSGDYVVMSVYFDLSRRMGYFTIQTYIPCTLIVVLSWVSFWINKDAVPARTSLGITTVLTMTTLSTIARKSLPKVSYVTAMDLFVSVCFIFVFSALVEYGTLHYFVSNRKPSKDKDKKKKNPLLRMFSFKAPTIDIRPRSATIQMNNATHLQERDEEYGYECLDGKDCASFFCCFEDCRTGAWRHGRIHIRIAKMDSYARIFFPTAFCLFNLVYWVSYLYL

Molecular target: BZD (central)(h) (Homo sapiens, UniProt P14867+P18507)
Conditions: reference compound

CN1C(=O)CN=C(c2ccccc2)c2cc(Cl)ccc21 [Diazepam]
nH, Specific binding: 2.004
